These are yes or no findings as the source states them, for the method shown. Binding seen in cells or lysates may run through a third protein. Some results given as binding are weak or reduced against the parent protein; the word gives no strength.

Protein sequences, listed by entry. Tags and fused reporters are not part of them.
UniProt Q15910: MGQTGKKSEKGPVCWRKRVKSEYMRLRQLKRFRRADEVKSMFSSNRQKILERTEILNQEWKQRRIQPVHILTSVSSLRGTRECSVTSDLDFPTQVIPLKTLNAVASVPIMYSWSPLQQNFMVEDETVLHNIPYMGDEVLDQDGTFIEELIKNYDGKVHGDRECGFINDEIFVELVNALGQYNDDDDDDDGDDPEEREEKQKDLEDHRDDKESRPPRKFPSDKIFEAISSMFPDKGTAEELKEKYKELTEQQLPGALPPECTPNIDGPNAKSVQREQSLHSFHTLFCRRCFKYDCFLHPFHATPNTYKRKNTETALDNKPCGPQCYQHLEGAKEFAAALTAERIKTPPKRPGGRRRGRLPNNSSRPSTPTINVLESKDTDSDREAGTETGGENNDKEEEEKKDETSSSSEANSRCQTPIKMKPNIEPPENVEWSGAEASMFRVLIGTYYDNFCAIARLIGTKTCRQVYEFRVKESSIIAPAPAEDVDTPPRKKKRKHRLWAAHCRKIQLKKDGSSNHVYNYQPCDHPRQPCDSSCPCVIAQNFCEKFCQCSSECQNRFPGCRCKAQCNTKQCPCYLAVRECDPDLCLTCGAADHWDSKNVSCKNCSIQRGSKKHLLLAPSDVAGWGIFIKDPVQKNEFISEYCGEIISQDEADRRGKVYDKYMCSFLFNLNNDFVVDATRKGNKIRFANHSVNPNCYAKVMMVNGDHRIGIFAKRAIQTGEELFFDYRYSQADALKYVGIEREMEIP
UniProt P42684: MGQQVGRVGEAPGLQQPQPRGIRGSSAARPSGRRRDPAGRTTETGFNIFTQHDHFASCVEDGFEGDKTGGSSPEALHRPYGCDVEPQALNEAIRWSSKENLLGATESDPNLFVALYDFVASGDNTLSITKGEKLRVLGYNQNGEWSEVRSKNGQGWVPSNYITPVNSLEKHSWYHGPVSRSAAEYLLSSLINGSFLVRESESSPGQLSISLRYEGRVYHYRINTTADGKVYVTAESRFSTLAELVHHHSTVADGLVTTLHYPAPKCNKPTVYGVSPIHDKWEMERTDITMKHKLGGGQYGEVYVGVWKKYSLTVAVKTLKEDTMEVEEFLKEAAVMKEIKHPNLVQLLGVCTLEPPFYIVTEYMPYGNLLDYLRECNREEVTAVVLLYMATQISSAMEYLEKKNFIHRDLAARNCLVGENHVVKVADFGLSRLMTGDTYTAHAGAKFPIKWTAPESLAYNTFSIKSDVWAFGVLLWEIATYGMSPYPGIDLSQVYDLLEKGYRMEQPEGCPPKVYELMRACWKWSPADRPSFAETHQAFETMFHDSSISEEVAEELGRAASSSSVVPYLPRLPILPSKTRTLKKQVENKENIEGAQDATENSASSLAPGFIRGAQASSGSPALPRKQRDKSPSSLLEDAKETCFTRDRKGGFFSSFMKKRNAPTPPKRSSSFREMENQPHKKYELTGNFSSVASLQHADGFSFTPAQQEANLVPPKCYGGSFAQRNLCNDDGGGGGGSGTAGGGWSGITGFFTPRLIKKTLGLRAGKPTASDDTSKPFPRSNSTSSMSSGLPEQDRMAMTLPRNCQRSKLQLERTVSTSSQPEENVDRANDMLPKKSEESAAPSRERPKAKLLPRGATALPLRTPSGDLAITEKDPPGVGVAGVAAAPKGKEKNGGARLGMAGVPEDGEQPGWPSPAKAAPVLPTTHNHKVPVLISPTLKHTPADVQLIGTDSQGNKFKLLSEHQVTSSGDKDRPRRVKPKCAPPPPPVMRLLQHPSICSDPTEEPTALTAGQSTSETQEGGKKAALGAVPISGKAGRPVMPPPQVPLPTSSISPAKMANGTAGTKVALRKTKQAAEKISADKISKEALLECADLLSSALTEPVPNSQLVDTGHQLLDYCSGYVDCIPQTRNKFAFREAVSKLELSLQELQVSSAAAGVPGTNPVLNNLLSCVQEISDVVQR
UniProt P00519: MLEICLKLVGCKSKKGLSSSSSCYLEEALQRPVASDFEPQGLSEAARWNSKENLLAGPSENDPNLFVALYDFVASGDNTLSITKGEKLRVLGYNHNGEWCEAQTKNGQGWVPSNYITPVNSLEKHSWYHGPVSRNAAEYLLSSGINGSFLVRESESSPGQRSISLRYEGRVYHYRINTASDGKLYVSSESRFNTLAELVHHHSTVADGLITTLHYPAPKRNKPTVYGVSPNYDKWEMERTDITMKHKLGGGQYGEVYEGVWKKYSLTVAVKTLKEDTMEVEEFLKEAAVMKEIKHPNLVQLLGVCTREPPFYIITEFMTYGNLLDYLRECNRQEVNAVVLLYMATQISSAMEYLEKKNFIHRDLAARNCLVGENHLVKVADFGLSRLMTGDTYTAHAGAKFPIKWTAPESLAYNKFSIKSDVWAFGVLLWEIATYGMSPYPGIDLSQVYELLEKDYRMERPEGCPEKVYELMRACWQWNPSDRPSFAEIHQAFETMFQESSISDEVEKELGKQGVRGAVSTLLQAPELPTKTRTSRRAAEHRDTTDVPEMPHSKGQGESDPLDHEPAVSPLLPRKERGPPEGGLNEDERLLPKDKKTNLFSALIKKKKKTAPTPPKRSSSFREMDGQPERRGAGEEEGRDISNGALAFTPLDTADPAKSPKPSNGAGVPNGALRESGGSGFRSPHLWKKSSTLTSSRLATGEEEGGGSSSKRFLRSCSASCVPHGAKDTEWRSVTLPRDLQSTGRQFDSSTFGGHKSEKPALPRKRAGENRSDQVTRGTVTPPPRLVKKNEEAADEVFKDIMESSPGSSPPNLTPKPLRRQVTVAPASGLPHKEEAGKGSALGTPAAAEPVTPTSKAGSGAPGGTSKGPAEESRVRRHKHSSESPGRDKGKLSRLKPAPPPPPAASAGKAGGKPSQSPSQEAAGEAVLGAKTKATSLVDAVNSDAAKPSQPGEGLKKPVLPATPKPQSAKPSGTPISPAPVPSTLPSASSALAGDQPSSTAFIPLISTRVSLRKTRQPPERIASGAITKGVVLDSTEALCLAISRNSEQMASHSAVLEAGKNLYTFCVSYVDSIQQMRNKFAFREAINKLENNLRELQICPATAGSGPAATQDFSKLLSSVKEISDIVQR
UniProt Q15022: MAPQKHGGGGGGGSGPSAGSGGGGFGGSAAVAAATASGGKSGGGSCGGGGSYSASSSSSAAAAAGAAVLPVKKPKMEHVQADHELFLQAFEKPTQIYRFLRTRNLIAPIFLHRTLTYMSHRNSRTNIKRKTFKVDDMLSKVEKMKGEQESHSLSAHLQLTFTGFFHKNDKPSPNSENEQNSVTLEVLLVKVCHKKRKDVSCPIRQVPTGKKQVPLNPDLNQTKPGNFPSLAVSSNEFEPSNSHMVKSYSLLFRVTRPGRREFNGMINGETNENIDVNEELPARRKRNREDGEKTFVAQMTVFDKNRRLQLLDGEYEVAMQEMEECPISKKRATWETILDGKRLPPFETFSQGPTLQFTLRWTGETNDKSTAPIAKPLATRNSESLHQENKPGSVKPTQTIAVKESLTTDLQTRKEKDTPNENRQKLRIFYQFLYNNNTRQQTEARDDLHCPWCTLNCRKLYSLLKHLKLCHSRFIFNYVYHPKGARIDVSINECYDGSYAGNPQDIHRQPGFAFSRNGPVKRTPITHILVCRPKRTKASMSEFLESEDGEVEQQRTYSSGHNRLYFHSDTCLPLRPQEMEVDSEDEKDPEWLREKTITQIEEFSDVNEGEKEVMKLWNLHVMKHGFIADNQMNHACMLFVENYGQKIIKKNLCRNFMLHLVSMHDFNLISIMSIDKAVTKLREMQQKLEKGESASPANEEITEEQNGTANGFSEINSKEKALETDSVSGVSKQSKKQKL

For three substances, binding results are on record in article doi:10.1101/2025.02.18.638898.

Test [1] has as its target endogenous EZH2 (SUM159 cells) (human (endogenous in SUM159)) (UniProt Q15910). Nature of the test: co-IP.
The target in test [2] is ABL2 eGFP wildtype (pN1-ABL2-eGFP WT) (UniProt P42684). Nature of the test: co-IP.

Turning to “endogenous ABL1 (SUM159 cells) (from UniProt P00519 1-1130)”, the binding entry in test [1] is “no binding”.
Consider “endogenous SUZ12 (HEK293T cells) (from UniProt Q15022 1-739)”, for which, in test [2], the binding result was “binds”.
Consider “endogenous ABL2 (SUM159 cells) (from UniProt P42684 1-1182)”, for which, in test [1], the binding entry is on record as “binds”.
